This is an account of results in the supplement of paper PMC10849652.

The chains behind the UniProt entries cited, without tags or fusion partners. Where a name states a change or a piece, a line headed by the entry shows the natural chain unless it says otherwise.
UniProt Q9BW62: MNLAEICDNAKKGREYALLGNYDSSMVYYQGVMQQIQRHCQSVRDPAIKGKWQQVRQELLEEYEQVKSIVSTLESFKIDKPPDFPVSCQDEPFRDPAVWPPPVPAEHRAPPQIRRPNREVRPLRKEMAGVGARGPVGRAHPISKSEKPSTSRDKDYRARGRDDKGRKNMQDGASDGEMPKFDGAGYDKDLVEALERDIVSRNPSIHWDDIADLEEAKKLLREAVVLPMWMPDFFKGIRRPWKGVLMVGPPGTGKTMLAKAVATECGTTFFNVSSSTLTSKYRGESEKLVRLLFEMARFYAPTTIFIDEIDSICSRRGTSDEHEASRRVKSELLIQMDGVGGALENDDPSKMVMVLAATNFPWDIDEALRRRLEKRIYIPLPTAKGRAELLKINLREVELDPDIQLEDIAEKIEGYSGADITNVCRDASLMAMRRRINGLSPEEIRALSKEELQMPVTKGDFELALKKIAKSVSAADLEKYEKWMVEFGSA
UniProt Q9ULH0: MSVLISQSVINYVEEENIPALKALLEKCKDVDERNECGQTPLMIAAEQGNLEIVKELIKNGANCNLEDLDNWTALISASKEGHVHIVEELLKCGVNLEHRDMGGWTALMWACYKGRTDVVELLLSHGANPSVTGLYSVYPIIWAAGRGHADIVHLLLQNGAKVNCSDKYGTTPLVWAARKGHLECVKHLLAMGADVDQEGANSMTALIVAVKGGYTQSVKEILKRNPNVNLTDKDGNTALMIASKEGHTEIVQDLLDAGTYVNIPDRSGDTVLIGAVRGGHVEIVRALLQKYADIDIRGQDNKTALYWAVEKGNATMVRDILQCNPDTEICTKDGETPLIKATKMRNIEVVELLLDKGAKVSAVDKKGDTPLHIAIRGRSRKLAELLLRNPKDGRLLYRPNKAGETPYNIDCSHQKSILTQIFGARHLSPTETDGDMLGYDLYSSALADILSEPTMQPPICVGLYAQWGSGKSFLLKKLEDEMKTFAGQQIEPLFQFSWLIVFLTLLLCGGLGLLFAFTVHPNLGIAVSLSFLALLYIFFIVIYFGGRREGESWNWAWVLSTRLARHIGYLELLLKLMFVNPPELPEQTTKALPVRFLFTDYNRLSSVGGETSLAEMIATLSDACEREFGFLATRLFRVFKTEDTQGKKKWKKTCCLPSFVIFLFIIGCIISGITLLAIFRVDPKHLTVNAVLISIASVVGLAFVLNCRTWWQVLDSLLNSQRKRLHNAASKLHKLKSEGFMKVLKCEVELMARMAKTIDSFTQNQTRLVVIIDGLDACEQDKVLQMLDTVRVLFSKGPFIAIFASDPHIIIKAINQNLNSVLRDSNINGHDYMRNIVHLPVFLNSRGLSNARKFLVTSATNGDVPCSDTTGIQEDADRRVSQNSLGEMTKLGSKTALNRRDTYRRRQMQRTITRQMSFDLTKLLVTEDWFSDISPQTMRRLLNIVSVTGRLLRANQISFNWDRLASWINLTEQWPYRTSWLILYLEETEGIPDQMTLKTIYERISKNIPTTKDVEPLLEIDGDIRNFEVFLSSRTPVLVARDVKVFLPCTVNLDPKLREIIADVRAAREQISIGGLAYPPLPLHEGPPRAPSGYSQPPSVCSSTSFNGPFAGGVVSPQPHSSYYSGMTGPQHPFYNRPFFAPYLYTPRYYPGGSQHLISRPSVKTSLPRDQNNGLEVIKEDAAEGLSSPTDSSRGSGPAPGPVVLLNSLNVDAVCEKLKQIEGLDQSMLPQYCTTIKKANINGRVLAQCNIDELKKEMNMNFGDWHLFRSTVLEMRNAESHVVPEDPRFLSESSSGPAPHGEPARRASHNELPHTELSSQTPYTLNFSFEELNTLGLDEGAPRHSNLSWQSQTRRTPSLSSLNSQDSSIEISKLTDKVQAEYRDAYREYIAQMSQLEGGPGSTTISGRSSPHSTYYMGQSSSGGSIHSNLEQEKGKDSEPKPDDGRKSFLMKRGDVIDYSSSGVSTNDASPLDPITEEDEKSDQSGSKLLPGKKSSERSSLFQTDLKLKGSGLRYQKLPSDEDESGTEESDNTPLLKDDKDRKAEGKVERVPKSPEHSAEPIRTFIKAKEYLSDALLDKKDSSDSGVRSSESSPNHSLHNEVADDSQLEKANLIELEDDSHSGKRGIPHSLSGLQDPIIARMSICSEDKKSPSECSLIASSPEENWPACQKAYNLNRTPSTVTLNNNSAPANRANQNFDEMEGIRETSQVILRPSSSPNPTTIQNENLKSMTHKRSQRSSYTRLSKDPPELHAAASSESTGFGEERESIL
UniProt O95239: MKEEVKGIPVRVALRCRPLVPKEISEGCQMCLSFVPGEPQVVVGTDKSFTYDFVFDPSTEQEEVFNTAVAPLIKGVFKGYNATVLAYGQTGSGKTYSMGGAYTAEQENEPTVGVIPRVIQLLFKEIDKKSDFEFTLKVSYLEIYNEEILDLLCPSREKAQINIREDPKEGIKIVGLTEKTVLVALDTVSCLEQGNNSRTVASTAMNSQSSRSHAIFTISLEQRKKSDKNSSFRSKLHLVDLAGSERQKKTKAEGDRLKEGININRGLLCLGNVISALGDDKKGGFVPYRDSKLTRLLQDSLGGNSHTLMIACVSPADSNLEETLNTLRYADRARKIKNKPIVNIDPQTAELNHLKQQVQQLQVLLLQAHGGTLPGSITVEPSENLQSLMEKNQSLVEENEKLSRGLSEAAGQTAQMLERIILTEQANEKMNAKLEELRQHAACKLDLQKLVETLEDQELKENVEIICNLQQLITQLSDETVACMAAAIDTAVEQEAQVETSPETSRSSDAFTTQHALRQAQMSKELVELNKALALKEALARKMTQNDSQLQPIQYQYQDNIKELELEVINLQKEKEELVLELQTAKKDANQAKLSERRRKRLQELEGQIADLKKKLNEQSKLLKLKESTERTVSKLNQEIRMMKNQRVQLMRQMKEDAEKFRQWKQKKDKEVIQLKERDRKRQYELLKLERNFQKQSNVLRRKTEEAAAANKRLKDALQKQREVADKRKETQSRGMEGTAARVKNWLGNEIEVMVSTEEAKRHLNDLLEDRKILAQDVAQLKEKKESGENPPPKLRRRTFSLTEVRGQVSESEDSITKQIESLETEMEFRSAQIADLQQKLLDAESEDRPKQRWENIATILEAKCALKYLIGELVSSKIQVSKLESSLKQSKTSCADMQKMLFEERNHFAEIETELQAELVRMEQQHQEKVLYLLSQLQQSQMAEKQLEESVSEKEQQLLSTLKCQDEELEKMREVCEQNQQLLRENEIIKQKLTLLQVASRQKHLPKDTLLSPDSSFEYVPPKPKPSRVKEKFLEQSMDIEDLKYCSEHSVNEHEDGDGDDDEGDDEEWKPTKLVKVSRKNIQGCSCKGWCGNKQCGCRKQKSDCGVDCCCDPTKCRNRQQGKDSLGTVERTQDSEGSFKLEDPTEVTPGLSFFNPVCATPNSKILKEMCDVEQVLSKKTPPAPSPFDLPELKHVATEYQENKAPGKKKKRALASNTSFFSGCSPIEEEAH
UniProt Q719H9: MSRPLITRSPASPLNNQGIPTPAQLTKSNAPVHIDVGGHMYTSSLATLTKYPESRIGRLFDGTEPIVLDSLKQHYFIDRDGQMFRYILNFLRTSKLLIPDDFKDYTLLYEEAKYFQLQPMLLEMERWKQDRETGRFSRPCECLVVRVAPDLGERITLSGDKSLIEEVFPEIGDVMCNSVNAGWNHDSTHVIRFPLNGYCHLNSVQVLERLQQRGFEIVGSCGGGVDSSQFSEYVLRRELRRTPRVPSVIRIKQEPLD
UniProt Q8NFY9: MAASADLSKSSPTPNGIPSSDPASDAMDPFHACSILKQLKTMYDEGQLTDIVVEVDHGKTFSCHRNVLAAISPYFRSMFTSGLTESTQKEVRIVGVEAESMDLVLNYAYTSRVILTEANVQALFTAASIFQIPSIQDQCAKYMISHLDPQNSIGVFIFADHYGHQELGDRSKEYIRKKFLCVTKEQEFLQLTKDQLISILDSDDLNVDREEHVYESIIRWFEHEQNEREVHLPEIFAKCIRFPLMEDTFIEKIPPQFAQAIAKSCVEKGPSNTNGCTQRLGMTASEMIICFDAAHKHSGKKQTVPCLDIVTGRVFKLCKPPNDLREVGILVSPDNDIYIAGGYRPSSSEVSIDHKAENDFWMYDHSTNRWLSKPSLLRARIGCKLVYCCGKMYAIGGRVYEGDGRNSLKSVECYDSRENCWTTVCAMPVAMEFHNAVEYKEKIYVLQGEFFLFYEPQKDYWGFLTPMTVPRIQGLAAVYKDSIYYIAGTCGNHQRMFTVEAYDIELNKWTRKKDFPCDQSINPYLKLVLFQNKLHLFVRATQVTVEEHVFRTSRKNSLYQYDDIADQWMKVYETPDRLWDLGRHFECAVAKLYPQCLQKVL
UniProt Q8NB78: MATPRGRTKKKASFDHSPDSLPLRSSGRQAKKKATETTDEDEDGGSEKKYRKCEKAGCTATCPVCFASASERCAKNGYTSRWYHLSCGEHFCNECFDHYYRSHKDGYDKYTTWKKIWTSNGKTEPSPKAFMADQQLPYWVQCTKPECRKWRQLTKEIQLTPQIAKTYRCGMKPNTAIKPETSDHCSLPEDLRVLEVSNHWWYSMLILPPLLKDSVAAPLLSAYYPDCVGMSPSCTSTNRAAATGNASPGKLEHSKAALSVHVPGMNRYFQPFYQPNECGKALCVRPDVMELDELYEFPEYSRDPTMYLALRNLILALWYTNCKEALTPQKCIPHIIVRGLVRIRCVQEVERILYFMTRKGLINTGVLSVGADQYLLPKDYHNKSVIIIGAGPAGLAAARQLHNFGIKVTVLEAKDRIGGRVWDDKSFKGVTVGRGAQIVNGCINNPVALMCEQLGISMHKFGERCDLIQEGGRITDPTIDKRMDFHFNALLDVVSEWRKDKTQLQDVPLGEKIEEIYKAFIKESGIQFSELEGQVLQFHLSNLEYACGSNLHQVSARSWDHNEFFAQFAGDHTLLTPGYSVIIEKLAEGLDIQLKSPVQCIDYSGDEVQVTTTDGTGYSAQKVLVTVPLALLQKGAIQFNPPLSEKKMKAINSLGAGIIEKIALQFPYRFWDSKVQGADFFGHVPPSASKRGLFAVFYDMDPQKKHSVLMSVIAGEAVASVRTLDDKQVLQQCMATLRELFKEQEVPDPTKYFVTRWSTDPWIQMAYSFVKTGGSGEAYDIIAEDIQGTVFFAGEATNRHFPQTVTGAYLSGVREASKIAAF
UniProt Q6P597: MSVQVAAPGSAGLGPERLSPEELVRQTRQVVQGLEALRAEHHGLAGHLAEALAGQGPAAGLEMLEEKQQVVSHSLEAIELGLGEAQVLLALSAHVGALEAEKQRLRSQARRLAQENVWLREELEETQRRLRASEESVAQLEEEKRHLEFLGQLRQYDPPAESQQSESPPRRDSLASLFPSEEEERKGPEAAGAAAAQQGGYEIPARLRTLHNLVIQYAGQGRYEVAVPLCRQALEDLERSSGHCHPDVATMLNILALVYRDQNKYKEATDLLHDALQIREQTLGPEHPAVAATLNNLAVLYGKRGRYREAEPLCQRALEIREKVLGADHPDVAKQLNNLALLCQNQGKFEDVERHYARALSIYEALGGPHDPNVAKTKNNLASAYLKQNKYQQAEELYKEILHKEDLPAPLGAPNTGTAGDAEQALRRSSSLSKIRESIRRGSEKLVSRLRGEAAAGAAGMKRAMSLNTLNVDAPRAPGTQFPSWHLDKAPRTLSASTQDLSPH
UniProt P05412, whole entry, looked up: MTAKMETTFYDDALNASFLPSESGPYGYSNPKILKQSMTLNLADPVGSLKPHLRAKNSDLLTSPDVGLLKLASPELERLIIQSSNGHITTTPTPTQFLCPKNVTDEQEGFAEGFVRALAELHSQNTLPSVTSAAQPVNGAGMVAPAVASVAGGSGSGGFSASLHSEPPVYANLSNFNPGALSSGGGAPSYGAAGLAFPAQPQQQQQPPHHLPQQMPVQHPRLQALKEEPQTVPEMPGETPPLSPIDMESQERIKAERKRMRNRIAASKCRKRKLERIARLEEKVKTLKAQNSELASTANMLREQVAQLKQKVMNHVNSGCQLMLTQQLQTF
UniProt Q6PID8: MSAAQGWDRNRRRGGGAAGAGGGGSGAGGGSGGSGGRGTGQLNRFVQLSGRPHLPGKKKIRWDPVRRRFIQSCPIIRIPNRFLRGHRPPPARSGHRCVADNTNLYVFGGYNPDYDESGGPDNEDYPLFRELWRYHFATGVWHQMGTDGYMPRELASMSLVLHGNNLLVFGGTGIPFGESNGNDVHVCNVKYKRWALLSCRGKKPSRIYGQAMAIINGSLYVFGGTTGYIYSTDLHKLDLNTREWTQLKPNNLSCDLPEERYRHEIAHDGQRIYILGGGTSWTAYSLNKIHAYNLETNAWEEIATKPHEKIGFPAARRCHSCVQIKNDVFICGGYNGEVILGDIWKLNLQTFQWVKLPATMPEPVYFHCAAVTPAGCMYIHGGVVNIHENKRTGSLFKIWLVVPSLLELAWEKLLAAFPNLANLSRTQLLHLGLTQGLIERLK

This is one part of the list.

Compound in this assay: C1CN(CCC1(CC2=CC=C(C=C2)Cl)N)C3=NC=NC4=C3C=CN4
Briefly: log2 fold change, soluble protein after heating vs DMSO (PISA); higher = thermal stabilisation; K562 cells, 10 uM, 30 min; active = over 0.2 and 3.5 SD of the protein, either way, in both replicates (recomputed). The method in brief:
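K562 cells at 2×10^6 cells/mL were exposed to 10 μM compound for 30 min, then aliquots were heated for 3 min across 48°C-58°C, pooled, and extracted in PBS containing 0.5% NP-40 at 4°C. The supernatant after 21,000xg for 90 min was taken as soluble protein and measured by TMTpro 16plex LC-MS/MS with channel sums equalised. Thermal stability is reported relative to control samples, with values from duplicates. Fold changes are given on a log2 scale.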
As for KATNAL1 (UniProt Q9BW62), the log2 fold change was inactive: -0.034. For KIDINS220 isoform 2 (UniProt Q9ULH0) the value was inactive: 0.081; for KIF4A (UniProt O95239), inactive: -0.462. Next, KATNBL1 (UniProt Q9H079): inactive: -0.06; KCTD1 (UniProt Q719H9): inactive: 0.019. For KBTBD8 (UniProt Q8NFY9) the value was inactive: -0.156. For the target KDM1B (UniProt Q8NB78), the log2 fold change is inactive: 0.204. Regarding KLC3 isoform 3 (UniProt Q6P597), the log2 fold change was inactive: 0.054. Next, KIAA0754 (UniProt O94854): inactive: 0.041; JUN (UniProt P05412): inactive: -0.123.

On to KLHDC10 (UniProt Q6PID8), for which the log2 fold change is inactive: 0.11. In the case of KLHL42 (UniProt Q9P2K6), the log2 fold change was inactive: -0.102.
